According to patent US20120148857A1, “Treated wood and methods of treatment” (priority 2010, published 2012):
For at least one compound, name, drawing or mass did not settle the structure.

Source text: Knowing the molecular weight of the product, it was possible to calculate how many moles of water were hydrated. It was thus possible to calculate the molar content of a saturated solution of the particular zinc salt, and thus to determine if is was sufficiently soluble at a low but possible processing temperature for an unheated preservative-treatment facility. […] Ten grams of the clear solution was dried overnight in a 70 C oven. […] Water has a molecular weight of 18.
The anhydrous foamed salt was crushed and added back to the solution, as crystallization seeding.
The washed precipitates were dried to constant weight in a 70 C oven.

## O=C([O-])CC(O)C(=O)[O-].[Zn+2] (stereo not shown) [Zinc malate]
  Solids content of the saturated solution: 2.9 grams/100 ml
